Experiment [1] has as its system MOLT-4 cells. Description: Cellular antiproliferation assay (CCK-8), MOLT-4. Particulars: Homo sapiens, MOLT-4, 72 h, read-out: Antiproliferation IC50, MOLT-4. Type of experiment: cell-based.
In experiment [2] the test system is U937 cells. Put plainly: Cellular antiproliferation assay (CCK-8), U937. Type of experiment: cell-based. As to conditions: Homo sapiens, U-937, 72 h, read-out: Antiproliferation IC50, U937.

Take `Cc1ccc(NC(=O)c2ccc(CN3CCN(C)CC3)cc2)cc1Nc1nccc(-c2cccnc2)n1` [Imatinib, imatinib]: the IC50 in experiment [1] came to 48.5 µM; in experiment [2] it was 16 µM.

For the origin of these results see paper PMC6010122 (Journal of Enzyme Inhibition and Medicinal Chemistry, 2017).
